Source: US20240034790A1 (INNOBATION BIO, published 2024)
Results are given in words; binding and its absence hold for the method and conditions named. Some entries that bind do so weakly or less than the wild type.

The chains behind the UniProt entries cited, without tags or fusion partners. Residues count along the entry.
UniProt Q08722, residues 19-139: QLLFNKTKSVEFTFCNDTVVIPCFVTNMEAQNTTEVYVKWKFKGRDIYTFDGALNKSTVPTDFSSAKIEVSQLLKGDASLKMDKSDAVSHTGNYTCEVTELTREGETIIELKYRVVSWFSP

B1: 4E12 antibody (antibody, V domains shown)
VH: QIQFAQSGPELKKSGETVKISCRASGYTFTNYGMNWVKQAPGKGLKWMGWINTYTGEPTYADDFKGRFAFSLETSASTAYLQINNLKNEDMATYFCARGGGRGAMDYWGQGTTLTVSS
VL: DVLMTQTPLSLPVSLGDQASISCRSSQSIVHSNGNTYLDWYLQKPGQSPKLLIYKVSKRFSGVPDRFSGSGSGTDFTLKISRVEAEDLGVYYCFQGSHVPFTFGSGTKLEIK
notes: Hybridoma monoclonal antibody detected with anti-mouse IgG
B2: 7C7 antibody (antibody, V domains shown)
VH: EVQLQQSGPELVKPGASVRMSCKASGYTFTSYVMHWVKQKPGQGLEWIGYINPYNDGTKYNEKFKGKSTLTSDKSSSTAYMELSSLTSEDSAVYCCARGRNRYDSWFAYWGQGTLVTVSA
VL: DIQMTQTTSSLSASLGDRVTISCRASQDISNYLNWYQQKPDGTVKLLIYYTSRLHSGVPSRFSGSGSGTDYSLTISNLEQEDIATYFCQQGNTLPWTFGGGTKLEIK
notes: Monoclonal antibody from a hybridoma (mouse myeloma fusion), detected with anti-mouse IgG; In the ELISA hybridoma culture solution was used
B3: 3H3 antibody (antibody, V domains shown)
VH: EVQLQQPGPELVRPGASVKMSCKASGYTFTNYWMHWVKQRPGQGLEWIGMIDPSNSETRLNQKFKDKATLNVDKSSNTAYMQLSSLTSEDSAVYSCARGGFAFDSWGQGTTLTVSS
VL: DVLMTQTPLSLPVSLGDQASISCRSSQSLVHNNGNTYLHWYLQKPGQSPKLLIYKVSNRFSGVPDRFRGSGSGTDFTLKISRVEAEDLGVYFCSQSTHVPWTFGGGTKLEIK
notes: as for B1

target: CD47 protein (Acrobiosystems, cat#CD7-HA2E9) (UniProt Q08722); test: ELISA on coated CD47 protein

binding | Binder
binds | B1
binds | B2
binds | B3

target: CD47 protein (Acrobiosystems, cat#CD7-HA2E9) (UniProt Q08722); test: ELISA screening of hybridoma clones

binding | Binder
binds | B1
binds | B2
binds | B3
